This is a selection; strong and weak results do not stand in their true shares.
Each target was assayed with COC(=O)C#Cc1ccccc1 [methyl 3-phenylpropiolate] (assay: log2 ratio of iodoacetamide-alkyne labeling of the cysteine site, DMSO over compound (competition); higher = stronger covalent engagement of the cysteine by the compound, active = 1 or more). Conditions: 500 µM; treatment time 1 h; system: HEK293T cell lysate.
How it was run: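 After 1 h at ambient temperature with vehicle or electrophile (500 µM), HEK293T lysate (2 mg/mL) was labelled for 1 h with iodoacetamide alkyne and clicked to sCIP-TMT reagents. Pooled samples were trypsin-digested overnight at 37 °C, streptavidin-enriched, acid-eluted and analysed by Orbitrap Eclipse LC-MS/MS with FAIMS, then quantified in FragPipe over three replicates with duplicate channels. A cysteine's log2 competition ratio is its mean control-channel over mean compound-channel reporter intensity. Cysteines quantified in only one replicate were not included.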

Protein sequences, listed by entry. Tags and fused reporters are not part of them. Lines headed by an entry give the natural chain unless they say otherwise; changes in a name come on top.
UniProt Q08J23, whole entry, looked up: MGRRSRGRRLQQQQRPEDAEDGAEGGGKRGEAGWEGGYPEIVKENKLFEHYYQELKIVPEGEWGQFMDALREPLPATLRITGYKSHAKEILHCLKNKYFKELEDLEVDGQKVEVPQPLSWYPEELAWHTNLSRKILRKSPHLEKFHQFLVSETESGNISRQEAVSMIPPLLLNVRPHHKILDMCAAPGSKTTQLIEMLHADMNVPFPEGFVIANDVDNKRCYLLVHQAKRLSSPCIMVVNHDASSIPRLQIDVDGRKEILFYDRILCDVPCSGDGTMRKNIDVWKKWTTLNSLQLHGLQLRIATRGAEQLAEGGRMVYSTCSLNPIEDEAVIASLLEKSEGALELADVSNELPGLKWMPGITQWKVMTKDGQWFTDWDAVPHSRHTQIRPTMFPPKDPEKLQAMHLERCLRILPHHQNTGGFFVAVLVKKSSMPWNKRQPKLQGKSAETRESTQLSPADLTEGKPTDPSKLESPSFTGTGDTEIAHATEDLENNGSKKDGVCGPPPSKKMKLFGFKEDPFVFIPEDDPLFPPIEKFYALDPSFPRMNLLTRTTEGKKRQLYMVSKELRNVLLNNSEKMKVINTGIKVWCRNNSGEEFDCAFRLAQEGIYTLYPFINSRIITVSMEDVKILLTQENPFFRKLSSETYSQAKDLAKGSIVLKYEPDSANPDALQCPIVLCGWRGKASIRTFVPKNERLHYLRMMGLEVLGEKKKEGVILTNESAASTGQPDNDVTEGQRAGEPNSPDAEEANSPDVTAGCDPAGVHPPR
UniProt Q13232: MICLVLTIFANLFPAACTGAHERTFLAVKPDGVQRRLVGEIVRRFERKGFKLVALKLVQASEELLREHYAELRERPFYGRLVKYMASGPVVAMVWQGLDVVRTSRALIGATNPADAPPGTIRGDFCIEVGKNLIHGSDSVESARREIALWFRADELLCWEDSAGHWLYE
UniProt Q02952: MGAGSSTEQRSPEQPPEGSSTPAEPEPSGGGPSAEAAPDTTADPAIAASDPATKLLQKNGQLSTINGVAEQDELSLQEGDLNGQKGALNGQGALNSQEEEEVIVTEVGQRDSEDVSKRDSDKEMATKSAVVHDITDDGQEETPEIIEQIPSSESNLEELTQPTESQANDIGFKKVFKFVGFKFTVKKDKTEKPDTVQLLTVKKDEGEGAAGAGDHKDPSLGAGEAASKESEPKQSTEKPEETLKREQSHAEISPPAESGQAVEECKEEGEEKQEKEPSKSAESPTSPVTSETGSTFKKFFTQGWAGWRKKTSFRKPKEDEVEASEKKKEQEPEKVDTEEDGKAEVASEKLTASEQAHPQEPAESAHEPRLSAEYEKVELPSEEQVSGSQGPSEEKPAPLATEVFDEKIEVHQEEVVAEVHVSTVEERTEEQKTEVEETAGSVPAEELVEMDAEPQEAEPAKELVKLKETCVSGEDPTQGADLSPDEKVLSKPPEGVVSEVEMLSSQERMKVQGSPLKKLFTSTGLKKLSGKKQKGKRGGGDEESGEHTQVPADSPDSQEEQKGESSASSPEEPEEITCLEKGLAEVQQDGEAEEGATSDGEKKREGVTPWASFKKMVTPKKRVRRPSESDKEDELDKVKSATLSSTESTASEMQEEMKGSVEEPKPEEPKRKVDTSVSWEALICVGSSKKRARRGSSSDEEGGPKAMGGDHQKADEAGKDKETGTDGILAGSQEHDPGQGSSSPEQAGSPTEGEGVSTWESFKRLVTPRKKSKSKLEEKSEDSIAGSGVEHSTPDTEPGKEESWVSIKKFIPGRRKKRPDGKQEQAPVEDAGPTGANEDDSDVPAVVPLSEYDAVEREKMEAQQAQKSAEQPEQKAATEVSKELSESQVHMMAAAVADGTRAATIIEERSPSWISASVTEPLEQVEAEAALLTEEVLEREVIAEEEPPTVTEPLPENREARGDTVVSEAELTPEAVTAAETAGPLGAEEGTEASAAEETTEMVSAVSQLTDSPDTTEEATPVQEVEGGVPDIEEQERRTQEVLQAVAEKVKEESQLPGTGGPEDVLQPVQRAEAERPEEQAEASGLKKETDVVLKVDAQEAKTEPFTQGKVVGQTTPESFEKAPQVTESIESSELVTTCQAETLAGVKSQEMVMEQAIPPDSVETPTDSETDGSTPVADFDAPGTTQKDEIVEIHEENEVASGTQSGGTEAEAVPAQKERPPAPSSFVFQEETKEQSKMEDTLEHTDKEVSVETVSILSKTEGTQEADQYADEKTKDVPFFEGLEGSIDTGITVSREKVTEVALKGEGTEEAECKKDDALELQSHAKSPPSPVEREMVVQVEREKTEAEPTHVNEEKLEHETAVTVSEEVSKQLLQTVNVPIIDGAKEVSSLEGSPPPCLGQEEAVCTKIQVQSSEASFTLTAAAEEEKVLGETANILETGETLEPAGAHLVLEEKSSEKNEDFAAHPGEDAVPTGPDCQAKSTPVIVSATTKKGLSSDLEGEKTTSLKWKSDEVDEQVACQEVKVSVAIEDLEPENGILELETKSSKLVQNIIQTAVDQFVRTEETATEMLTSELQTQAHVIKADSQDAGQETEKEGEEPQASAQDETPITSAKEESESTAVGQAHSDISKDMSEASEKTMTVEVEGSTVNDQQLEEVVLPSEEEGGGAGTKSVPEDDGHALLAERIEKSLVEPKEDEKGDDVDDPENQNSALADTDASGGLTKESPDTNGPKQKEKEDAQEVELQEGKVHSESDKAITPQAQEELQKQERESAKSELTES
UniProt Q12765: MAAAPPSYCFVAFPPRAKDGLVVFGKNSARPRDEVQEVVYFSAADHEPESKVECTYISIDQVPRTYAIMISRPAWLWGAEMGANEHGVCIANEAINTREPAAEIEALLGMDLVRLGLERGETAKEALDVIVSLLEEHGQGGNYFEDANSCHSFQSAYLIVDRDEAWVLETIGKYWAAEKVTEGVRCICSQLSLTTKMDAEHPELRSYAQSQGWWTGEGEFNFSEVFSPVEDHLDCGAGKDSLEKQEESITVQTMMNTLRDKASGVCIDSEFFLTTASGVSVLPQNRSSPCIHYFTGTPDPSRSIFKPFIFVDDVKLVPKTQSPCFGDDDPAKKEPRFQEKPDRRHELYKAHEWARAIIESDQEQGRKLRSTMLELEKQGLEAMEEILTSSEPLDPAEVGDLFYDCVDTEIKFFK
UniProt Q08211, whole entry, looked up: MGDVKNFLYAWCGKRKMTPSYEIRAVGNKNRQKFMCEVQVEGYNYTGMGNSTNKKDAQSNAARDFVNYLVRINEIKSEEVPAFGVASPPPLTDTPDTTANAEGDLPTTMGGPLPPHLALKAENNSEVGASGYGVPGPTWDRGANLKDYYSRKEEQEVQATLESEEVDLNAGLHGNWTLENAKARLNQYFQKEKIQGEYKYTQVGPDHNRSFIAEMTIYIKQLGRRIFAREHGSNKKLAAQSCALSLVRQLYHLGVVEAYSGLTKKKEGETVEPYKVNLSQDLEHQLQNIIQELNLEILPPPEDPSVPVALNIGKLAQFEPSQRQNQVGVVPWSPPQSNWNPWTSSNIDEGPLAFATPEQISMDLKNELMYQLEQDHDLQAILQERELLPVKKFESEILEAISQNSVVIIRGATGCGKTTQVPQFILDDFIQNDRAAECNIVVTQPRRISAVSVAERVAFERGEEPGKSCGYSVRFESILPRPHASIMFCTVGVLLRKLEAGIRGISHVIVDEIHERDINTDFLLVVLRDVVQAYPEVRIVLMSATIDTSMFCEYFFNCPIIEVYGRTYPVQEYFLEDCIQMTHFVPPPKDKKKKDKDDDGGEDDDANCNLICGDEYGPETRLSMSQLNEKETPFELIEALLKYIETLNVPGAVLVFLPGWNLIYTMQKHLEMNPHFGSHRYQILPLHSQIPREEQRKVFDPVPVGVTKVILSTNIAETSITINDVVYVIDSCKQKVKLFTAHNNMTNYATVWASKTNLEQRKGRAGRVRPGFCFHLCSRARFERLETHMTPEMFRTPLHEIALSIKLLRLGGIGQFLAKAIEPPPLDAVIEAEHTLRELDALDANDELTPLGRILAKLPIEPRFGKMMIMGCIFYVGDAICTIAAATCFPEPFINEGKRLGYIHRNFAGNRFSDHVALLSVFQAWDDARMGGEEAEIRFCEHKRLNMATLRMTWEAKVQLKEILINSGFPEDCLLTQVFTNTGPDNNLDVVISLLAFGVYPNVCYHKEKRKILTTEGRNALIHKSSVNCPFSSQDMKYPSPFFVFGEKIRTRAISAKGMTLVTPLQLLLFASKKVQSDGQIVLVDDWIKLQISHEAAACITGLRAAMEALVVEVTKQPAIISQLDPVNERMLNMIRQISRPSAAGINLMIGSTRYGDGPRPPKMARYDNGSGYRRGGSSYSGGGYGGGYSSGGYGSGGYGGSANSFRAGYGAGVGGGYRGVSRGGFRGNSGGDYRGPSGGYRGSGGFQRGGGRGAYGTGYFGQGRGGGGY
UniProt Q12874: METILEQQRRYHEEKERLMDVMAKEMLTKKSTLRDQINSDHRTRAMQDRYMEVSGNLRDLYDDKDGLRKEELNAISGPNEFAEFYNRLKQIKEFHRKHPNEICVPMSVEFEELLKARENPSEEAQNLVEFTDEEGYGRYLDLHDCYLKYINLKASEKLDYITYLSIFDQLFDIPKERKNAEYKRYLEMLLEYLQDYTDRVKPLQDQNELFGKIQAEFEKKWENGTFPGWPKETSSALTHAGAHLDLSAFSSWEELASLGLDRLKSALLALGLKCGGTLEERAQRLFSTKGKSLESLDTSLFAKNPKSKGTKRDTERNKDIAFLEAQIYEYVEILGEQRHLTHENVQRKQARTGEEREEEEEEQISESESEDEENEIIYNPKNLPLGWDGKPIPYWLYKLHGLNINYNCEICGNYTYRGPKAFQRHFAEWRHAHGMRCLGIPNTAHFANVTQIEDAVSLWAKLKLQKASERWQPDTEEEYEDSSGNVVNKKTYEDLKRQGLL
UniProt Q13151: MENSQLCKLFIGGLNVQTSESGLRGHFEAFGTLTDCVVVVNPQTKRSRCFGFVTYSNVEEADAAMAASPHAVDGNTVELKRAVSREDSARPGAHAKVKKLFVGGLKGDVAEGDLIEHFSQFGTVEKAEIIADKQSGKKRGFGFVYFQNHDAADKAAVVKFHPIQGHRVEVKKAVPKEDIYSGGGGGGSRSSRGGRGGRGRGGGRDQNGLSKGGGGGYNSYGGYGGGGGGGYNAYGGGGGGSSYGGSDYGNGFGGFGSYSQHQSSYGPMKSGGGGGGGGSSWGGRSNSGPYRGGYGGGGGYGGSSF
UniProt Q0VDG4: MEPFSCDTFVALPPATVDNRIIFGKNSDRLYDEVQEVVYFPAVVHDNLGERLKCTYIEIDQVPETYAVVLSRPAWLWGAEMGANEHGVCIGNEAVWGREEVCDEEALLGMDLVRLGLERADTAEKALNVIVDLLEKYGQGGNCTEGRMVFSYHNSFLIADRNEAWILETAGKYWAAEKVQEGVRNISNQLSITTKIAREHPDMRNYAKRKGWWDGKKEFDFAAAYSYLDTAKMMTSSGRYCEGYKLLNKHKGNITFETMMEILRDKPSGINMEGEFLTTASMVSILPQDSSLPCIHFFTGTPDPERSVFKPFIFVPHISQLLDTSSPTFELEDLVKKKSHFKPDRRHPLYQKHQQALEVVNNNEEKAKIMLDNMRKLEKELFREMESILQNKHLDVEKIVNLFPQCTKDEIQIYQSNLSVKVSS
UniProt Q07021: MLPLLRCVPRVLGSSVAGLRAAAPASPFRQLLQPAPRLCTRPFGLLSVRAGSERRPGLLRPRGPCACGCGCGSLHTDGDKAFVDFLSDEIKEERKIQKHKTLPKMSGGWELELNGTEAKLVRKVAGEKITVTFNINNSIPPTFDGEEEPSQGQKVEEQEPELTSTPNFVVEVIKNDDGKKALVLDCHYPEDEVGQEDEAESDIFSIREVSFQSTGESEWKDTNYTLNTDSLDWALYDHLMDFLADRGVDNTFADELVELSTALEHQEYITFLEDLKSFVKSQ
UniProt Q07866: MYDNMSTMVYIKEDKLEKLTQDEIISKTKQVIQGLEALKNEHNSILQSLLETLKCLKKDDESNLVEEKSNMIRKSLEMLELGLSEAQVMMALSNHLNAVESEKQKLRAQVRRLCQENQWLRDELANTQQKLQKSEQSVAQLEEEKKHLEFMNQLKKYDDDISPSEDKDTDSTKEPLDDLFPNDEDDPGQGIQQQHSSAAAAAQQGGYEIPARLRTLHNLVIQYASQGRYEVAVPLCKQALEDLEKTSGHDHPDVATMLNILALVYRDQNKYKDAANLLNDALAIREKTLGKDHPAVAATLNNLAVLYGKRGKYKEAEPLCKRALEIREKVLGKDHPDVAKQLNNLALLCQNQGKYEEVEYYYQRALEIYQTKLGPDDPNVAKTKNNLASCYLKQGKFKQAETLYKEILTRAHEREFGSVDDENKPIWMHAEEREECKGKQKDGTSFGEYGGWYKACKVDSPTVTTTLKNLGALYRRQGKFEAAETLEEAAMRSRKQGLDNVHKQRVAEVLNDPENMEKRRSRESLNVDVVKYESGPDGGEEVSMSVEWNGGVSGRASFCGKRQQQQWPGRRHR

Target | log2 ratio of iodoacetamide-alkyne labeling
UniProt Q03164_C2159 | inactive: 0.49
UniProt Q02750_C207 | inactive: 0.0374
NSUN2 C93 (UniProt Q08J23) | inactive: 0.0853
PTPN11 C573 (UniProt Q06124) | inactive: 0.725
EIF4G1 C662 (UniProt Q04637) | inactive: 0.118
NSUN2 C502 (UniProt Q08J23) | inactive: 0.126
UniProt Q05519_C455 | inactive: 0.238
UniProt Q12905_C37 | inactive: 0.0335
RLF C1055 (UniProt Q13129) | inactive: 0.645
PTPN11 C567 (UniProt Q06124) | inactive: 0.725
CAMSAP2 C512 (UniProt Q08AD1) | inactive: 0.622
AHNAK C2162 (UniProt Q09666) | inactive: 0.564
ROCK1 C1300 (UniProt Q13464) | inactive: 0.212
NME3 C158 (UniProt Q13232) | inactive: 0.955
AKAP12 C1407 (UniProt Q02952) | active: 1.16
RPL18A C64 (UniProt Q02543) | inactive: -0.0795
GTF3C1 C1091 (UniProt Q12789) | inactive: 0.819
TRIM28 C65 (UniProt Q13263) | inactive: -0.087
GTF3C1 C544 (UniProt Q12789) | inactive: 0.77

Part of the list above in a different format:
Target	log2 ratio of iodoacetamide-alkyne labeling
PTPN11 C573 (UniProt Q06124)	inactive: 0.725
EIF4G1 C662 (UniProt Q04637)	inactive: 0.118
NSUN2 C502 (UniProt Q08J23)	inactive: 0.126
UniProt Q05519_C455	inactive: 0.238
UniProt Q12905_C37	inactive: 0.0335
RLF C1055 (UniProt Q13129)	inactive: 0.645
PTPN11 C567 (UniProt Q06124)	inactive: 0.725
CAMSAP2 C512 (UniProt Q08AD1)	inactive: 0.622
AHNAK C2162 (UniProt Q09666)	inactive: 0.564

(cont.)

Target | log2 ratio of iodoacetamide-alkyne labeling
PTPN11 C104 (UniProt Q06124) | inactive: -0.0651
CEBPZ C282 (UniProt Q03701) | inactive: 0.575
GLO1 C61 (UniProt Q04760) | inactive: -0.0479
SCRN1 C324 (UniProt Q12765) | inactive: 0.0183
GABPA C338 (UniProt Q06546) | inactive: 0.308
CSTF3 C628 (UniProt Q12996) | inactive: 0.491
DHX9 C12 (UniProt Q08211) | inactive: -0.068
GPS1 C175 (UniProt Q13098) | inactive: 0.322
SF3A3 C274 (UniProt Q12874) | inactive: -0.0195
PPIG C10 (UniProt Q13427) | inactive: 0.0648
HNRNPA0 C49 (UniProt Q13151) | inactive: 0.0396
TRIM28 C124 (UniProt Q13263) | inactive: 0.236
SCRN3 C102 (UniProt Q0VDG4) | inactive: 0.169
C1QBP C186 (UniProt Q07021) | inactive: 0.23
SSRP1 C200 (UniProt Q08945) | inactive: 0.665
TARBP1 C24 (UniProt Q13395) | inactive: 0.0551
COASY C144 (UniProt Q13057) | active: 1.16
KLC1 C114 (UniProt Q07866) | inactive: 0.218
TRAF2 C182 (UniProt Q12933) | inactive: -0.179

Reference: the supplement of paper PMC11006884
